Data taken from patent publication EP4066629A1, “METHODS FOR ALTERING THE MICROBIOME INFLUENCED BY ROOTS OF A PLANT USING MICROPEPTIDES” (Université de Rennes 1, priority 2021, dated 2022).
“Also recorded” adds a separate entry of the source. At least one peptide structure holds a part that was inferred or is arguable (an end, a ring closure or a residue). Where a SMILES comes first, the peptide text is derived from it.

Columns and labels:
Arabidopsis thaliana = experiment: miPEP treatment of plants: phenotypic changes and tolerance to water stress; type: in vivo; settings: for tolerance to water stress / drought resistance: plants watered with 500µL miPEP solution (20µM), three times a week, three weeks
bacteria and archaea = experiment: Bacterial/archaeal communities of miPEP-treated plants and unplanted soils (16S rRNA sequencing and qPCR; alpha-/beta-diversity, differential abundance, indicator species); type: in vivo, Arabidopsis thaliana; settings: for number of highly significant bacterial indicator species: compared with Control and miPEP-C treated soils; for observed bacterial species: vs Control (water); for bacterial taxa (ASVs) enriched compared to Control / bacterial taxon (ASV) most enriched compared to Control: DESeq2, top 50, p<0.001
[1] = root and close rhizosphere samples, p<0.1
[2] = first experiment, third week of treatment, vs control plants (water), Wilcoxon test p<0.001
[3] = first experiment, vs control, data not shown

**Q.** With `CC[C@H](C)[C@H](N)C(=O)N[C@@H](Cc1c[nH]cn1)C(=O)N[C@@H](CO)C(=O)N[C@@H](CCC(N)=O)C(=O)N[C@@H](CCC(=O)O)C(=O)N[C@@H](CCSC)C(=O)N[C@@H](CC(C)C)C(=O)N[C@@H](CCCNC(=N)N)C(=O)N[C@H](C(=O)N[C@@H](CS)C(=O)N[C@@H](CCCNC(=N)N)C(=O)N[C@@H](C)C(=O)N[C@@H](CC(C)C)C(=O)N[C@@H](Cc1ccccc1)C(=O)N[C@@H](CC(N)=O)C(=O)N[C@H](C(=O)O)C(C)C)C(C)C` [AtSC159c, reference compound] (H-IHSQEMLRVCRALFNV-OH) as the compound, how does the “effects on plants compared with miPEP159c-treated plants” value (Arabidopsis thaliana; repeated (second) experiment, scrambled control peptide) read?
**A.** Its value is “did not show the same effects”.

**Q.** Which bacterial alpha-diversity (bacteria and archaea; distant rhizospheres, vs Control, observed species p<0.01, Shannon p<0.001, Simpson p<0.001) does the source give for `CSCC[C@H](N)C(=O)N[C@H](C(=O)N[C@@H](Cc1c[nH]c2ccccc12)C(=O)N1CCC[C@H]1C(=O)N[C@@H](CC(C)C)C(=O)N[C@@H](CC(C)C)C(=O)N[C@@H](CO)C(=O)N[C@@H](CC(C)C)C(=O)N[C@@H](CO)C(=O)N[C@@H](Cc1ccccc1)C(=O)N[C@@H](CC(C)C)C(=O)N[C@@H](CC(C)C)C(=O)N[C@@H](CO)C(=O)N[C@@H](CCCCN)C(=O)N[C@@H](Cc1ccc(O)cc1)C(=O)N[C@H](C(=O)O)C(C)C)[C@@H](C)O` [miPEP159a] (H-MTWPLLSLSFLLSKYV-OH) here?
**A.** The bacterial alpha-diversity was “very significantly less diverse”.

**Q.** And the “bacterial alpha-diversity (less diverse than Control)” value (bacteria and archaea; unplanted soils, vs Control, observed species p<0.01, Shannon p<0.01)?
**A.** The value was “also the case”.

**Q.** And the “number of highly significant bacterial indicator species” value (bacteria and archaea; unplanted soils)?
**A.** Its value is over 10 ASVs.

**Q.** `CC[C@H](C)[C@H](NC(=O)[C@@H](NC(=O)[C@H](CC(N)=O)NC(=O)[C@H](CCSC)NC(=O)[C@H](CCC(=O)O)NC(=O)[C@H](CC(C)C)NC(=O)[C@@H](NC(=O)[C@H](CCCCN)NC(=O)[C@H](CCCNC(=N)N)NC(=O)[C@H](CC(C)C)NC(=O)CNC(=O)[C@@H](N)CCSC)C(C)C)[C@@H](C)O)C(=O)N[C@@H](Cc1ccccc1)C(=O)N[C@@H](CC(=O)O)C(=O)N[C@@H](CO)C(=O)N[C@@H](CC(C)C)C(=O)N[C@@H](Cc1ccccc1)C(=O)N[C@@H](CC(C)C)C(=O)N[C@@H](CO)C(=O)N[C@@H](Cc1c[nH]cn1)C(=O)O` [miPEP159b] (H-MGLRKVLEMNTIFDSLFLSH-OH) was tested. Which observed bacterial species (bacteria and archaea; [1]) did it give?
**A.** Its observed bacterial species is “slightly more”.

**Q.** What about the “bacterial taxa (ASVs) enriched compared to Control” value (bacteria and archaea; root samples, listed as miPEP-B) of the same compound?
**A.** The value was “Bryobacter; also recorded: Burkholderia-Paraburkholderia; also recorded: Streptomyces”.

**Q.** What about the “bacterial taxon (ASV) most enriched compared to Control” value (“bacterial taxon … compared to Control” below) (bacteria and archaea; unplanted soils) of the same compound?
**A.** The value was “Tepidisphaera”.

**Q.** And the “number of highly significant bacterial indicator species” value (bacteria and archaea; unplanted soils)?
**A.** Its value is over 10 ASVs.

**Q.** For `CC[C@H](C)[C@H](NC(=O)[C@H](CC(C)C)NC(=O)[C@H](Cc1ccccc1)NC(=O)[C@@H](NC(=O)[C@H](Cc1c[nH]cn1)NC(=O)[C@@H](NC(=O)[C@H](CCCNC(=N)N)NC(=O)[C@H](CC(C)C)NC(=O)[C@H](CC(N)=O)NC(=O)[C@H](CCC(N)=O)NC(=O)[C@@H](N)CCSC)C(C)C)C(C)C)C(=O)N[C@@H](CCC(=O)O)C(=O)N[C@@H](CO)C(=O)N[C@@H](C)C(=O)N[C@@H](CCCNC(=N)N)C(=O)N[C@@H](CS)C(=O)O` [miPEP159c] (H-MQNLRVHVFLIESARC-OH), which “fresh weight of leaves” value (Arabidopsis thaliana; [2]) is on record?
**A.** Its value is “very significantly higher”.

**Q.** And the “water content of leaves” value (Arabidopsis thaliana; [2])?
**A.** The value was “very significantly higher”.

**Q.** What about the number of leaves (Arabidopsis thaliana; [3]) of the same compound?
**A.** The number of leaves was “No differences”.

**Q.** And the rosette diameter (Arabidopsis thaliana; [3])?
**A.** The rosette diameter was “No differences”.

**Q.** What about the “tolerance to water stress / drought resistance” value (Arabidopsis thaliana) of the same compound?
**A.** The value was “better tolerance to water stress; also recorded: significant beneficial effect”.

**Q.** And the “tolerance to water stress / drought resistance” value (Arabidopsis thaliana; listed as mi159c)?
**A.** The value was “conferring drought resistance”.

**Q.** What about the “fresh weight of leaves” value (Arabidopsis thaliana; repeated (second) experiment) of the same compound?
**A.** Its value is “significantly higher”.

**Q.** And the coloration of leaves (Arabidopsis thaliana; repeated (second) experiment, not seen in other treated plants)?
**A.** The coloration of leaves was “purple coloration”.

**Q.** What about the “bacterial taxon … compared to Control” value (bacteria and archaea; distant rhizosphere) of the same compound?
**A.** Its value is “Acidothermus”.

**Q.** What about the “bacterial indicator species (ASV indicative of the treatment)” value (bacteria and archaea; distant rhizosphere, p<0.001, Caenimonas, Proteobacteria) of the same compound?
**A.** The value was “ASV 325”.

**Q.** And the observed bacterial species (bacteria and archaea; [1])?
**A.** The observed bacterial species was “slightly more”.

**Q.** And the “Shannon index (bacteria/archaea)” value (bacteria and archaea; root and close rhizosphere samples, vs Control, p<0.1)?
**A.** The value was “slightly higher”.

**Q.** And the “bacterial taxa (ASVs) enriched compared to Control” value (bacteria and archaea; root samples, listed as miPEP-C)?
**A.** The value was “Bryobacter; also recorded: Burkholderia-Paraburkholderia; also recorded: Streptomyces; also recorded: P30-42FA”.

**Q.** And the “bacterial indicator species (ASVs indicative of the treatment)” value (bacteria and archaea; root samples, p<0.01 (ASV 417 p<0.001), listed as miPEP-C)?
**A.** The value was “ASV 417 (uncultured-Chitinophagaceae, Bacteroidetes); also recorded: ASV 323 (Rhodopseudomonas, Proteobacteria); also recorded: ASV 1702 (Rhizomicrobium, Proteobacteria); also recorded: ASV 1642 (Flavobacterium, Bacteroidetes)”.

**Q.** And the “bacterial taxon … compared to Control” value (bacteria and archaea; unplanted soils)?
**A.** The value was “Tepidisphaera”.
